Laboratory results: PubChem BioAssay AID1671195 (Yale University, 2021)
In all, the deposit lists about 22,000 reagents; below is an unselected part. Over the whole deposit, about 1,510 (6.9%) got an active call. 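Active includes knockdowns raising or lowering LDL uptake; positive z-scores mean more uptake, negative mean less.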 Entries without a mark were called inactive.

Purpose: 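Genes whose knockdown alters LDL uptake in liver cancer cells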 (primary screen)
System: human Huh7 hepatoma cells
Knock-down reagent: siRNA pool against human genes, 18 nM
Duration: about 2 to 2.5 days of knockdown, then 8 h LDL uptake
Treatment: DiI-labelled LDL at 30 µg/ml for 8 h, in lipoprotein-deficient serum medium
Read-out: 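Per-cell DiI-LDL intensity by automated imaging; well means scaled to the plate median and given as a robust z-score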
Reading the numbers: robust z-score: higher = more LDL uptake after knockdown
Hit rule: 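a gene counts as active if at least two replicate z-scores exceed ±2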

Target gene	robust z-score, replicate 1	robust z-score, replicate 2	robust z-score, replicate 3
BORCS7	-0.569	-0.774	-0.866
RSL24D1P11	-1.04	-0.938	-0.715
PHIP	0.463	0.437	1.35
CENPB	0.544	1.27	0.943
PDGFD	0.434	1.48	0.301
DZIP1L	0.184	-0.0855	0.178
FGF18	-0.828	-0.241	-0.913
MIS12	1.07	0.895	0.621
NCKAP1	0.301	-0.000707	0.114
ZNF25	2.48 (active)	2.84	2.4
S100Z	0.151	-0.0122	0.0869
CC2D1B	0.589	0.538	1.1
DCAF13	0.379	-0.324	0.214
KRT85	1.72	0.565	1.03
BIRC6	1.41	1.04	0.942
ERG	0.0071	-0.34	1.19
RUNX3	-0.116	-1.06	-1.05
BCL2A1	1.61	1.05	-0.102
VNN1	0.523	0.903	1.09
RHOB	-0.798	1.37	0.224
SGMS2	-0.6	-0.544	0.0201
USP41P	-1.17	-1.45	-0.663
FDFT1	-0.288	-0.535	-0.114
ZNF676	3.61 (active)	2.66	4.51
GPS2P1	-0.969	0.279	0.654
USP3	5.58 (active)	4.82	5.16
STK40	-0.431	0.109	-0.0199
SYNGAP1	-0.647	-0.282	-0.944
VWC2	-0.223	-0.0954	-0.219
CNOT3	-1.87	-1.75	-2.09
SERPINA10	-0.939	-2.07	-0.772
IQCF3	-1.23	-1.3	-1.45
CBLIF	0.929	2.74	1.57
IGHV3OR16-13	0.0408	-2.34	0.0595
ZHX3	-0.784	-0.778	-0.906
RRH	1.3	0.843	1.2
MSH2	1.04	0.785	1.08
WFDC9	0.127	0.246	0.442
SINHCAF	-0.961	-1.07	-0.987

Just “robust z-score, replicate 1” (6 entries from above):
VWC2 = -0.223
CNOT3 = -1.87
SERPINA10 = -0.939
IQCF3 = -1.23
CBLIF = 0.929
IGHV3OR16-13 = 0.0408

The listing continues.
Target gene	robust z-score, replicate 1	robust z-score, replicate 2	robust z-score, replicate 3
EPN2	-0.931	-1.18	-1.27
PCDHGA11	1.49	1.71	1.44
PRAM1	0.259	0.144	0.102
RND3	-1.25	-0.237	-0.888
ZNF836	-0.0999	0.0795	-0.156
SMAGP	0.837	0.163	-0.832
LOC401445 (retired record)	0.896	-0.298	0.507
RNF32	-0.837	0.106	-0.192
TSLIG3A	1.1	1.77	0.993
RAB21	-0.331	-1.73	-1.51
TSSK6	0.644	0.485	1.32
SMARCA1	-0.0313	-0.289	-0.605
OR10P1	-1.13	-0.519	-0.858
RTCB	0.8	1.05	1.45
NID2	0.136	-0.11	-0.746
IL1RAPL2	-0.437	-0.0215	-0.35
LOC391667 (retired record)	1.08	1.08	1.3
SENP6	0.309	2.11	0.928
LOC441708 (retired record)	-1.98	-1.88	-1.59
SAMD3	-0.808	-2.06	-1.02
GRWD1	-0.834	-1.16	-1.3
ARL10	0.471	-0.0345	1.16
GABARAP	1.68	1.11	0.662
C1orf52	-0.634	0.461	-0.657
GPER1	-1.4	-0.984	-0.829
TBC1D32	1.27	0.808	0.265
C11orf24	-0.626	-1.75	-0.557
SEH1L	1.05	0.778	0.486
TOMM40	-1.01	-0.459	-2.01
